Here are results for one molecule from patent publication US7744920B2, “Use of liposomal glucocorticoids for treating inflammatory states” (Hadasit Medical Research Services & Development Limited, priority 2004, dated 2010).

For the data set the following is noted: up to concentration of 50 mM. On the procedure: Surface tension was measured using μtrouge S (Kibron Inc., Helsinki Finland). A solution containing GC derivative (300 μL) was placed in the well after calibration and zeroing of the sensor using pure water and air. The measurement was performed at 26° C.

Regarding `C[C@@H]1C[C@H]2[C@@H]3CCC4=CC(=O)C=C[C@]4(C)[C@@]3(F)[C@@H](O)C[C@]2(C)[C@@]1(O)C(=O)COP(=O)(O)O` [Dexamethasone phosphate], the surface activity result is “not surface active”.
